# According to PubChem BioAssay AID540256 (National Center for Advancing Translational Sciences (NCATS), 2011):
# Screen size: about 300,000 compounds; about 3,700 (1.2%) were called active. The inconclusive results got no clear call from the source; some entries with a clear call stand among them for comparison. The call rests on the fitted dose curve; tested in HEK293 cells. A potency beside an inconclusive call is a rough fit, not a confirmed value.
# Test: qHTS for Inhibitors of binding or entry into cells for Lassa Virus; further: nearly all actives have a fitted effect of over 50% in size
# Details: Lassa virus pseudotype entry inhibition, cell reporter; series mostly up to 37.9 µM
# Potency means the concentration at half of the fitted maximal effect.
row,SMILES,Potency
1,Fc1ccc(CNc2ccc(CNc3ncn[nH]3)cc2)cc1,inactive
2,O=c1c2ccccc2sn1-c1ccccc1,"inconclusive: 29.1 µM [inhibitor, single point]"
3,O=S(=O)(c1ccc(Cl)cc1)N1CCN=C1SCc1cccc(Cl)c1,"inconclusive: 20 µM [inhibitor, partial curve, poor fit]"
4,Oc1cccc(/C=N/n2c(C3CCCCC3)n[nH]c2=S)c1,"inconclusive: 7.94 µM [inhibitor, partial curve, poor fit]"
5,O=C(NC(=O)c1ccccc1F)OCc1ccc(Cl)cc1Cl,"inconclusive: 6.31 µM [inhibitor, single point]"
6,O=C(c1cc(-c2ccccc2Cl)nc2ccc(Br)cc12)N1CCN(c2ccccn2)CC1,"inconclusive: 35.5 µM [inhibitor, single point]"
7,Cc1onc(-c2c(Cl)cccc2Cl)c1C(=O)Nc1ccc2c(c1)OCCO2,"inconclusive: 1.3 µM [inhibitor, single point]"
8,O=C(CSc1ccc(-c2ccc(F)cc2)nn1)N1CCCCC1,"inconclusive: 13 µM [inhibitor, partial curve, poor fit]"
9,COCCCNc1ncnc2c1cnn2-c1ccc(F)cc1,"inconclusive: 4.47 µM [inhibitor, full curve, poor fit]"
10,CNc1ccccc(-c2ccc3cc4c(cc3n2)OCO4)c1=O,"inconclusive: 22.4 µM [activator, single point]"
11,N=c1n(CCN2CCOCC2)c2ccccc2n1CC(=O)c1cccc([N+](=O)[O-])c1,"inconclusive: 2.82 µM [inhibitor, single point]"
12,CC(C)(C)OC(=O)N1CCC(c2c(C(=O)NCCN3CCC(Cc4ccccc4)CC3)cnn2-c2ccccc2)CC1,"inconclusive: 22.4 µM [inhibitor, partial curve, poor fit]"
13,CC12CC3CC1C(C(=O)O2)C3C(=O)O (stereo unspecified),inactive
14,COc1ccc(S(=O)(=O)NCc2ccncc2)cc1NC(=O)c1ccc(Cl)cc1,"inconclusive: 17.8 µM [inhibitor, single point]"
15,CCOC(=O)c1cccc(NC(=O)C2CCN(S(=O)(=O)c3cn(C)cn3)CC2)c1,"inconclusive: 5.62 µM [inhibitor, single point]"
16,Cc1[nH]nc(Nc2ccc(C(C)C)cc2)c1[N+](=O)[O-],"inconclusive: 35.5 µM [inhibitor, single point]"
17,CCn1c(=O)c(C(=O)Nc2ncccc2C)c(O)c2ccccc21,inactive
18,Cn1cccc1C(=O)C(=O)Nc1ccccc1,"inconclusive: 10 µM [inhibitor, partial curve, poor fit]"
19,CCCc1c(NC(=O)Nc2ccc(Cl)cc2Cl)cnn1-c1ccccc1,"inconclusive: 1 µM [inhibitor, full curve, poor fit]"
20,COc1ccc(CN2CCN(C(=O)c3ccc(S(=O)(=O)NCc4ccco4)cc3)CC2)cc1,"inconclusive: 12.6 µM [inhibitor, partial curve]"
21,O=C(c1cc2ccccc2oc1=O)N1CCN(c2ccccn2)CC1,inactive
22,COc1ccc(NC(=O)c2nc3nc(C)cc(C(F)F)n3n2)c(C)c1,inactive

row,SMILES,Potency
1,Nc1c(C(=O)NCCN2CCOCC2)c2nc3ccccc3nc2n1CCc1ccccc1,"inconclusive: 18.3 µM [inhibitor, partial curve, poor fit]"
2,Cn1cc(CN2CCN(c3ncccn3)CC2)c(-c2cccc(Cl)c2)n1,"inconclusive: 1 µM [inhibitor, partial curve, poor fit]"
3,COc1ccc(-c2cc(C(F)(F)F)n3nc(C(=O)Nc4cccc(Cl)c4C)cc3n2)cc1,"inconclusive: 10 µM [activator, partial curve]"
4,Cc1ccc(C(=O)Nc2ccc3nc(C)sc3c2)s1,"inconclusive: 0.794 µM [activator, partial curve, poor fit]"
5,COc1ccc(-n2nc3c(N4CCCC(C(=O)NCCc5ccc(C)cc5)C4)nnc(C)c3c2C)cc1 (stereo unspecified),inactive
6,NC(=S)NNc1cccc(Cl)c1,inactive
7,COc1ccc(NC(=O)COCc2cc(-c3cccs3)on2)cc1,inactive
8,CCOc1ccc(C(C(=O)NC2CCCC2)N(C(=O)c2snc(C(N)=O)c2N)c2cccc(O)c2)cc1 (stereo unspecified),"inconclusive: 8.91 µM [inhibitor, partial curve, poor fit]"
9,O=C(CNCc1ccccc1Cl)Nc1ccccc1N1CCCCC1,inactive
10,O=C(c1ccccc1F)N1CCN(c2cnn(-c3cccc(Cl)c3)c(=O)c2Cl)CC1,"inconclusive: 3.55 µM [inhibitor, partial curve, poor fit]"
11,O=C(CCSc1nnnn1-c1ccccc1)N1CCOCC1,"inconclusive: 0.891 µM [activator, full curve, poor fit]"
12,O=C(Nc1c2c(nn1-c1ccc(F)cc1)CS(=O)(=O)C2)c1ccc(S(=O)(=O)N2CCOCC2)cc1,inactive
13,Cc1[nH]c(=O)[nH]c(=O)c1S(=O)(=O)Nc1ccc(F)cc1Cl,"inconclusive: 3.55 µM [activator, single point]"
14,Cc1ccc2c(c1)C(c1ccc(F)cc1)N(C(=O)c1ccccc1Br)CC(=O)N2 (stereo unspecified),"inconclusive: 3.55 µM [inhibitor, full curve, poor fit]"
15,O=C1CC(C(=O)Nc2ccccc2)S/C(=N\N=C\c2ccco2)N1 (stereo unspecified),"inconclusive: 28.2 µM [activator, single point]"
16,O=S(=O)(Nc1ccon1)c1cc(Cl)ccc1Cl,"inconclusive: 35.5 µM [activator, single point]"
17,CCC1(CC)Nc2ccccc2C(=O)N1c1ccc(NC(C)=O)cc1,inactive
18,CCC(C)(C)C1CCC2(CC1)NC(=O)N(CC(=O)Nc1nc(-c3ccc(C)cc3)cs1)C2=O (stereo unspecified),"inconclusive: 35.5 µM [inhibitor, single point]"
19,O=c1[nH]c(CN2CCN(Cc3ccc4c(c3)OCO4)CC2)nc2ccccc12,inactive
20,CCC(C)NCC(=O)Nc1cc(S(=O)(=O)N(CC)c2ccccc2)ccc1Cl (stereo unspecified),"inconclusive: 17.8 µM [inhibitor, single point]"
21,Nc1ccc2c(c1)Cc1cc([N+](=O)[O-])ccc1-2,"inconclusive: 7.08 µM [activator, full curve, poor fit]"
22,COc1ccc(/C=N/OC(=O)Nc2ccccc2OC)cc1,"inconclusive: 15.8 µM [inhibitor, single point]"

row,SMILES,Potency
1,CCC(=O)Nc1ccc(/C(C)=N\NS(=O)(=O)c2ccc(C)cc2)cc1,"inconclusive: 35.5 µM [inhibitor, partial curve, poor fit]"
2,COc1ccc(OCC(=O)N(C)Cc2ccccc2)cc1,"inconclusive: 0.501 µM [activator, full curve, poor fit]"
3,COc1ccc(-n2cc(-c3ccccc3)nc2SCC(=O)Nc2ccccc2)cc1Cl,"inconclusive: 5.62 µM [activator, single point]"
4,Clc1ccc(OCc2cc(-c3ccccc3)no2)c(Cl)c1,active: 11.2 µM
5,COC(=O)c1ccccc1NC(=O)Cn1c(=O)n(-c2ccc(Cl)cc2)c(=O)c2c(C)c(C)sc21,"inconclusive: 1 µM [activator, full curve, poor fit]"
6,Cc1c(C)c2ccc(OC(C)C(=O)NC3CC(C)(C)NC(C)(C)C3)cc2oc1=O (stereo unspecified),"inconclusive: 35.5 µM [inhibitor, single point]"
7,Cc1cc(S(=O)(=O)N(Cc2ccc3c(c2)OCO3)CC2CCCO2)ccc1-n1cnnn1 (stereo unspecified),"inconclusive: 22.4 µM [inhibitor, single point]"
8,COc1ccc(/C=C/c2noc(-c3ccccc3O)n2)cc1,active: 11.2 µM
9,CC1Cc2ccccc2N1C(=O)CO/N=C/c1ccc(OC(F)F)cc1 (stereo unspecified),"inconclusive: 35.5 µM [inhibitor, single point]"
10,CC(=O)N1CCN(c2ccc(Oc3ccc([N+](=O)[O-])c(C(F)(F)F)c3)cc2)CC1,"inconclusive: 14.1 µM [inhibitor, single point]"
11,CC(=O)c1ccc(-n2c(C)ccc2-c2ccccc2)cc1,inactive
12,CCC(CC)C(=O)c1c[nH]c(C(=O)NCCCN2CCOCC2)c1,"inconclusive: 0.398 µM [inhibitor, partial curve, poor fit]"
13,O=C(c1ccc2c(c1)N(Cc1ccccc1)C(=O)c1ccccc1S2(=O)=O)N1CCN(c2ccccn2)CC1,"inconclusive: 5.62 µM [inhibitor, full curve]"
14,CC12CCC(=O)N1C(C(=O)Nc1cc(C(F)(F)F)ccc1N1CCCCC1)CS2 (stereo unspecified),inactive
15,CC1=NN(c2ccccc2)C(=O)C1C(=O)c1ccccc1 (stereo unspecified),"inconclusive: 14.1 µM [inhibitor, partial curve, poor fit]"
16,CCN(CC)Cc1c(O)ccc2occ(C(=O)c3ccc(OC)cc3)c12,"inconclusive: 25.1 µM [inhibitor, single point]"
17,Cc1cc2c(c(C)nn2-c2ccccc2)c(=O)o1,inactive
18,COc1ccc(CC(=O)Nc2nc(C)cs2)cc1OC,inactive
19,O=c1[nH]c2ccccc2[n+]([O-])c1-c1ccccc1,inactive
20,N#Cc1c(-c2ccccc2)c(-c2ccccc2)nn(CC(=O)NNC(=O)Nc2ccccc2)c1=O,"inconclusive: 17.8 µM [inhibitor, partial curve, poor fit]"
21,CCc1nnc(N/N=C/c2cc(Br)c(O)cc2O)n1N,"inconclusive: 35.5 µM [inhibitor, single point]"
22,COc1ccc(N2CCN(S(=O)(=O)c3ccc4c(c3)CCCC4)CC2)c([N+](=O)[O-])c1,"inconclusive: 9.2 µM [inhibitor, partial curve]"
